Measured values taken from article doi:10.1101/843219.
These are yes or no findings as the source states them, for the method shown. In cells and extracts the contact can be indirect. Binding calls can cover weak binding; strength is not graded here.

Protein sequences, listed by entry. Tags and fused reporters are not part of them. Lines headed by an entry give the natural chain unless they say otherwise; changes in a name come on top.
UniProt O95248: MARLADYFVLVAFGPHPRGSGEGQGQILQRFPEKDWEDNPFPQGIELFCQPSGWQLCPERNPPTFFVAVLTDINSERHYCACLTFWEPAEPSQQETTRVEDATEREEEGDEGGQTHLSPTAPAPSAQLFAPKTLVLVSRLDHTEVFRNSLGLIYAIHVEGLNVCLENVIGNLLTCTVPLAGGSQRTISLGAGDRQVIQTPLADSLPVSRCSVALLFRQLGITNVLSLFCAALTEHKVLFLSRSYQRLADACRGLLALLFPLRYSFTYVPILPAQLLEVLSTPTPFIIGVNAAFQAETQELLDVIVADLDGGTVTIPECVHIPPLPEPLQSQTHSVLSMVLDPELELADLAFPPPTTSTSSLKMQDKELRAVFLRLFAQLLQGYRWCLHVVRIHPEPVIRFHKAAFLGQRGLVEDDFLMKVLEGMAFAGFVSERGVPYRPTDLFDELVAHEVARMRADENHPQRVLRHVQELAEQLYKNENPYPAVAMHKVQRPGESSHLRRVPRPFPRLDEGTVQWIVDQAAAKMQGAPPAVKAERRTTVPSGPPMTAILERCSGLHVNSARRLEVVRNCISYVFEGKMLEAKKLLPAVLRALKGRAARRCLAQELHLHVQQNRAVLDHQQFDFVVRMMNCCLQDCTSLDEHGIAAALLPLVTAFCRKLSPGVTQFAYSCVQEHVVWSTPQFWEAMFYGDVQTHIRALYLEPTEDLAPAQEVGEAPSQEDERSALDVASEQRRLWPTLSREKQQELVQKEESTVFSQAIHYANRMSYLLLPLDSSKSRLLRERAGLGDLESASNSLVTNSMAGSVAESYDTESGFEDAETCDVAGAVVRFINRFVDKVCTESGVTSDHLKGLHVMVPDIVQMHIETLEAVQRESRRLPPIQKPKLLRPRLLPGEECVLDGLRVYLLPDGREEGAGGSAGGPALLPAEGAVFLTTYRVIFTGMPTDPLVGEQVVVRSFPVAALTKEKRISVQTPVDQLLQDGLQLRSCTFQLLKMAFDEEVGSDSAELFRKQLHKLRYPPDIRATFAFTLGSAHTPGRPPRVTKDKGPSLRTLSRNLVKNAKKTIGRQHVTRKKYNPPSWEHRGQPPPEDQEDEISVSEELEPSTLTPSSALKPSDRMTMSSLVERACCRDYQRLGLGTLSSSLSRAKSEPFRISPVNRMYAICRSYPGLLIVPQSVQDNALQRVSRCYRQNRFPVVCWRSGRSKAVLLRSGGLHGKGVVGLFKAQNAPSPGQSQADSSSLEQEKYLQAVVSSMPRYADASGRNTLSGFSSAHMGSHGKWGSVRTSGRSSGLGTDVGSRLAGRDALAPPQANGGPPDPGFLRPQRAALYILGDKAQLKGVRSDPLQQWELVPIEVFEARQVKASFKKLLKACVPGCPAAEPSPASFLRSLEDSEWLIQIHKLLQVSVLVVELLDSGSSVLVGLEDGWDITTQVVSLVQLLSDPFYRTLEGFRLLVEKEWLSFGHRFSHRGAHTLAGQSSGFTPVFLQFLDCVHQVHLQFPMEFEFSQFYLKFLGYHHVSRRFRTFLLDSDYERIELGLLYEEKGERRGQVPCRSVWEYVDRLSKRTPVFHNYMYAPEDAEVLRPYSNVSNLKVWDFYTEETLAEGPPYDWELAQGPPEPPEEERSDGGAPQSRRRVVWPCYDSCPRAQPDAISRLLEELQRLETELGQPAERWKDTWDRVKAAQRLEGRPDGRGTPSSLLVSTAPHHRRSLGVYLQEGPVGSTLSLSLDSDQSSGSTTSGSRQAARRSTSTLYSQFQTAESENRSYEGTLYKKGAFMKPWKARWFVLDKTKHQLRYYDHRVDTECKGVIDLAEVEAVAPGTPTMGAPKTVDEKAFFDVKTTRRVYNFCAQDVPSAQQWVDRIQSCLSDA
UniProt Q86WG5: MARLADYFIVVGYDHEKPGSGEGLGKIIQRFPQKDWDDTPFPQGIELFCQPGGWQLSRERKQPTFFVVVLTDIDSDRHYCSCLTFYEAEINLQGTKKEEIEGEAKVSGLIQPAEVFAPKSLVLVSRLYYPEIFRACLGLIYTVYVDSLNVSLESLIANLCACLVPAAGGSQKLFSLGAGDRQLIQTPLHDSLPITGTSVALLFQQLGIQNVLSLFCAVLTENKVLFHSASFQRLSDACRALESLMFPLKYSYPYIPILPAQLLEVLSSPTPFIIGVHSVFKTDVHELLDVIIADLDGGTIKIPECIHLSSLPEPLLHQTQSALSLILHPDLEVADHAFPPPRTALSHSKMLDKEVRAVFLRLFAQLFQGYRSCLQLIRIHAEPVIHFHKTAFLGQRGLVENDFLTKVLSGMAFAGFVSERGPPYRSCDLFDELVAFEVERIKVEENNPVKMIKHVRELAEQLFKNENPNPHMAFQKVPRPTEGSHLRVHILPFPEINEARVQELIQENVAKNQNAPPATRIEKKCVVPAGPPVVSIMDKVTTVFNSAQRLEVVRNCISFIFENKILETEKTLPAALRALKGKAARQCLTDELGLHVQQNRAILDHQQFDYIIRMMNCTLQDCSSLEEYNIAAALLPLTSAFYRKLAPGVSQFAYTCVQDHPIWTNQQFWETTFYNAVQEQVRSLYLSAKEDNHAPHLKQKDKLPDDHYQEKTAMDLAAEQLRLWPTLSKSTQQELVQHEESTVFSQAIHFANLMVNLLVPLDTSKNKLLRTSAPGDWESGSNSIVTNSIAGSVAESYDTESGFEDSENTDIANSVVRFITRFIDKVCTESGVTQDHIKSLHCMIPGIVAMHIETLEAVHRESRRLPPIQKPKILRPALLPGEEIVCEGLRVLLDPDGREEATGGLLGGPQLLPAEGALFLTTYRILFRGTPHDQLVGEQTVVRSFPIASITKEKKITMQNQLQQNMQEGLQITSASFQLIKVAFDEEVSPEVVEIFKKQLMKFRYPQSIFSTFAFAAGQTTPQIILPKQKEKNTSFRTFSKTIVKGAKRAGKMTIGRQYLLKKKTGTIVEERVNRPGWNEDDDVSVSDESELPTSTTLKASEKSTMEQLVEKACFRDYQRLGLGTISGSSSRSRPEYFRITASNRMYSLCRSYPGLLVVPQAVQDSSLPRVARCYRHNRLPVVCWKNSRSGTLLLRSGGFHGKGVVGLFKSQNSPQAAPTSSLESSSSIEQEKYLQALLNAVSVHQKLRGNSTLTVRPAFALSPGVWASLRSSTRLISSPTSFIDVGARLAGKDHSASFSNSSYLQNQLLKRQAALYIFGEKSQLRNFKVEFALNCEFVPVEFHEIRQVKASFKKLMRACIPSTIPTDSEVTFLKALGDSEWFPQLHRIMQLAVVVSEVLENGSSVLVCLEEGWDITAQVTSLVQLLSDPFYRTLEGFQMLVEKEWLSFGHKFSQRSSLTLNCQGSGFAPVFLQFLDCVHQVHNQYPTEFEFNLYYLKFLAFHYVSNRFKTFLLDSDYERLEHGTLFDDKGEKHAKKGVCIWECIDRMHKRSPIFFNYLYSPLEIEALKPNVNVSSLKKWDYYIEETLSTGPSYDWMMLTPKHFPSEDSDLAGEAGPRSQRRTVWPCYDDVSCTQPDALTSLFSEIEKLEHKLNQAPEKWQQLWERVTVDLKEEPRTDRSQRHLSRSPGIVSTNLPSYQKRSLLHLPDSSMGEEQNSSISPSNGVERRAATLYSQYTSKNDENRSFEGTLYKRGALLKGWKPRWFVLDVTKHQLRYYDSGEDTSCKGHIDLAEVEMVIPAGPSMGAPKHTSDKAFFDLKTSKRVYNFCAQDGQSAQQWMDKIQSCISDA
UniProt Q13614: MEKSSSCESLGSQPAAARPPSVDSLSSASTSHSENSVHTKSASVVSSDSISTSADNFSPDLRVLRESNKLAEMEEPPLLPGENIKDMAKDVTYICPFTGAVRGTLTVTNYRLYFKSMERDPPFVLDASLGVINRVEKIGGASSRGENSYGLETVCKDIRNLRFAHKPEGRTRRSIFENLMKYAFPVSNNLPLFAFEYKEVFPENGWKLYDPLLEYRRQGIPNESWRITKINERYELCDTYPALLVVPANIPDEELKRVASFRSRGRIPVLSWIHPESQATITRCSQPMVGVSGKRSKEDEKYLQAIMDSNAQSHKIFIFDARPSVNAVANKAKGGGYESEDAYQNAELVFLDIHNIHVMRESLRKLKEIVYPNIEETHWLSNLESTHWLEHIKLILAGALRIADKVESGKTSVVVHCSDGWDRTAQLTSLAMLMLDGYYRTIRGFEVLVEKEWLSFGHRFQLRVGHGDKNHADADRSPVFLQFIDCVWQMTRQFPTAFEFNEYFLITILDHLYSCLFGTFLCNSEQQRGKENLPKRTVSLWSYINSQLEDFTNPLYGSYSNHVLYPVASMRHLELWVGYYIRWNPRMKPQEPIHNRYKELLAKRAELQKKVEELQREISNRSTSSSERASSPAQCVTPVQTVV

Assays:
[1] = molecular target: human FLAG-MTMR5-AM1 (myotubularin-related 5; SET Binding Factor 1) (human) (UniProt O95248); assay: co-IP
myc-MTMR13 (human) = myc-MTMR13 (human) (UniProt Q86WG5); assay: co-IP

binding [1] | binding (myc-MTMR13 (human)) | Substance
binds |  | human EGFP-MTMR2 (myotubularin-related 2) (from UniProt Q13614 1-643)
binds weakly |  | human EGFP-MTMR13 (myotubularin-related 13; SBF2) (from UniProt Q86WG5 1-1849)
 | binds weakly | human FLAG-MTMR5-AM1 (myotubularin-related 5; SET Binding Factor 1) (from UniProt O95248-1)
